Test results from paper doi:10.1101/2021.01.04.425243.
Results are given in words; binding and its absence hold for the method and conditions named. Binding seen in cells or lysates may run through a third protein. Some binding calls cover weakened binding; strength is not graded here.

Target: FGFR2b (human (endogenous in T47D)) (UniProt P21802)
Experiment: co-IP

Row | Substance | binding
1 | EGFR T693A mutant (from UniProt P00533 25-1210) (receptor) | binds
2 | EGFR wild type (from UniProt P00533 25-1210) (receptor) | binds
